US20140056878A1
These are yes or no findings as the source states them, for the method shown. Some results given as binding are weak or reduced against the parent protein; the word gives no strength.

Sequences of proteins named here, by UniProt entry; tags and fusion partners are left off. A change or cut given only in a name is not applied to a line headed by its entry. Residues count along the entry.
UniProt P10643, residues 23-843: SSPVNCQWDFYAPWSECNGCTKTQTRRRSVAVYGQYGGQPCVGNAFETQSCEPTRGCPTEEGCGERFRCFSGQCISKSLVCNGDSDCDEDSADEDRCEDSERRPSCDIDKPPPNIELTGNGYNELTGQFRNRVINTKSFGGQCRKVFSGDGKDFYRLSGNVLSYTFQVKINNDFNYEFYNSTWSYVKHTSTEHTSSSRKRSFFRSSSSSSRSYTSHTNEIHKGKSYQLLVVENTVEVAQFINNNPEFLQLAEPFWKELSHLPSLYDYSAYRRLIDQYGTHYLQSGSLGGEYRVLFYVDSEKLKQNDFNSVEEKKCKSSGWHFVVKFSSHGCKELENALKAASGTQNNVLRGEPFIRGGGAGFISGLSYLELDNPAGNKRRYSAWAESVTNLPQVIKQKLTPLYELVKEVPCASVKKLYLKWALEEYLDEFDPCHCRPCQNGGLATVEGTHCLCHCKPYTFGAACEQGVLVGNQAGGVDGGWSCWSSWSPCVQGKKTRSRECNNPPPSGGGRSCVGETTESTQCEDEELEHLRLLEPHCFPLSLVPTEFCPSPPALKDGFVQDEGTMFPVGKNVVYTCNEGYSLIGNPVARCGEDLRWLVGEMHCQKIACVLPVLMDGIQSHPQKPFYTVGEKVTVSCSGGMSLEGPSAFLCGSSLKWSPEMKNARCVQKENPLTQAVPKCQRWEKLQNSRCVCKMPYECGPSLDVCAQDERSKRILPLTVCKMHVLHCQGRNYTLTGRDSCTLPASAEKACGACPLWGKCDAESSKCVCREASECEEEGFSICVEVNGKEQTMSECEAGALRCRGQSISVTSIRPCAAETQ
UniProt P01031: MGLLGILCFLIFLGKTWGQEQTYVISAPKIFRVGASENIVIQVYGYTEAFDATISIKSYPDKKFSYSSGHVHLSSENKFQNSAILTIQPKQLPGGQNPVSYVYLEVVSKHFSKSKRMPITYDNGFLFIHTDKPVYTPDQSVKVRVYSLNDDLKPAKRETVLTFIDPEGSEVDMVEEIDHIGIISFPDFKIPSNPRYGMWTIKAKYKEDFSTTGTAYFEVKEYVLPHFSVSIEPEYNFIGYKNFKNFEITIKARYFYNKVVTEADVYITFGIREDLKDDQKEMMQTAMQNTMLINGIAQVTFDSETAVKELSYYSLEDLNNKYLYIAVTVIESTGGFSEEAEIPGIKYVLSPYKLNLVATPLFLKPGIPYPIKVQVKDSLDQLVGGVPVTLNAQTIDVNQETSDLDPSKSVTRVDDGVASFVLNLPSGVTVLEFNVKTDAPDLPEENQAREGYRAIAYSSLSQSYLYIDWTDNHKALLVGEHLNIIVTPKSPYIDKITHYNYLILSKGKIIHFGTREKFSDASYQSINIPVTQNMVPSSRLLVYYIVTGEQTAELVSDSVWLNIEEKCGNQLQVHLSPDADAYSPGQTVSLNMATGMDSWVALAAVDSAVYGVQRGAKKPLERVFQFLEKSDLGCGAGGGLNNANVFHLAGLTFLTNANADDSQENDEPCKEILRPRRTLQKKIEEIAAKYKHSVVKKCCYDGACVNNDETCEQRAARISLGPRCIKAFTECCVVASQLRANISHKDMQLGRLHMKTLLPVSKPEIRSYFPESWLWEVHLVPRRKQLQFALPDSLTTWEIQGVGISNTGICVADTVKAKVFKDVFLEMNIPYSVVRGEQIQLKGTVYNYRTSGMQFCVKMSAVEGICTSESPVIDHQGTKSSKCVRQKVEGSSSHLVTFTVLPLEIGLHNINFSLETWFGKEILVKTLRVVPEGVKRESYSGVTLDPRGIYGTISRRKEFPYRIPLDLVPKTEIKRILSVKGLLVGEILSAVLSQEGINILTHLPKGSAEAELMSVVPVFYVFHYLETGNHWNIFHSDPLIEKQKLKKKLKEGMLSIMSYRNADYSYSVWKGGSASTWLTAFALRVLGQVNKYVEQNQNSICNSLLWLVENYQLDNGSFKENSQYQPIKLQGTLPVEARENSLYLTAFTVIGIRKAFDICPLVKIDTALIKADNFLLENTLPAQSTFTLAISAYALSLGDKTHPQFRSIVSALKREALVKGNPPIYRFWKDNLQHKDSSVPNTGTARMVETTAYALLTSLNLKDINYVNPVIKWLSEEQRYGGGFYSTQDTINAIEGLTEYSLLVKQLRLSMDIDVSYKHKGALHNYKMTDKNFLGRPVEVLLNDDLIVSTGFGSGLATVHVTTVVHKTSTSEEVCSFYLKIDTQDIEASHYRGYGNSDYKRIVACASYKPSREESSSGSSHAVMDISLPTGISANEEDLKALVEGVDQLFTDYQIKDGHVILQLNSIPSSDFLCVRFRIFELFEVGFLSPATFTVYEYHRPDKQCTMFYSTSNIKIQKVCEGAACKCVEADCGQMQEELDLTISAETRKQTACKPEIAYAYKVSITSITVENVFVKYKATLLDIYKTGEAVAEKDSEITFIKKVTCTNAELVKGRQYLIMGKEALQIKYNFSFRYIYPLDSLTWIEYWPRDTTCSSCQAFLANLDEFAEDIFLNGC

Target: Complement protein C7 (UniProt P10643)
Assay: BIACORE blocking assay: C5-C345C mixed with 100 nM C5b6, then flowed over C7 captured by an anti-C7 antibody; competitor C5b6

binding: binds
Substance: C5-C345C (from UniProt P01031 1530-1676)
